In US20230357411A1:
Positions count from the first letter of the chain named. Results are given in words; binding and its absence hold for the method and conditions named. Some entries that bind do so weakly or less than the wild type.

Sequences of proteins named here, by UniProt entry; tags and fusion partners are left off. Residues count along the entry.
UniProt Q3UFB7, residues 34-799: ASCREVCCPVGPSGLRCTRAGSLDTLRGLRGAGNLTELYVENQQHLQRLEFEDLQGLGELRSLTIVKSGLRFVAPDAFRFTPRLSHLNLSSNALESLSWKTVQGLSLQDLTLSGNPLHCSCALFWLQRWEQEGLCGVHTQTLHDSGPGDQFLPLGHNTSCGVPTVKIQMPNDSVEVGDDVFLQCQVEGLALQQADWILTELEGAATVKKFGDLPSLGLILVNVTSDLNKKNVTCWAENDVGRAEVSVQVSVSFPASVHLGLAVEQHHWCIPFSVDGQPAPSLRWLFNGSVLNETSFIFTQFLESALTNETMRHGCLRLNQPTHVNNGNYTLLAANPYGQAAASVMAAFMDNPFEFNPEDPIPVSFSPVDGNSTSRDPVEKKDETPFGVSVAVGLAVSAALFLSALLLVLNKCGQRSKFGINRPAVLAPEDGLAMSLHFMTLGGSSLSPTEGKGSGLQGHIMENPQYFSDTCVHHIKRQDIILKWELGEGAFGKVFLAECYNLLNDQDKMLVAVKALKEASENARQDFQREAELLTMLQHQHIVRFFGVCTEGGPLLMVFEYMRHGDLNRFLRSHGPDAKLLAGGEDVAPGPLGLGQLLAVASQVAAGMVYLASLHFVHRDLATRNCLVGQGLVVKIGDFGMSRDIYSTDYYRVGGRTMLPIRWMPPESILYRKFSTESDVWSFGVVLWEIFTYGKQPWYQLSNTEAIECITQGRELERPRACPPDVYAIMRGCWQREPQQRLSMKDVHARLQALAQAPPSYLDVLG
UniProt P04629, residues 33-796: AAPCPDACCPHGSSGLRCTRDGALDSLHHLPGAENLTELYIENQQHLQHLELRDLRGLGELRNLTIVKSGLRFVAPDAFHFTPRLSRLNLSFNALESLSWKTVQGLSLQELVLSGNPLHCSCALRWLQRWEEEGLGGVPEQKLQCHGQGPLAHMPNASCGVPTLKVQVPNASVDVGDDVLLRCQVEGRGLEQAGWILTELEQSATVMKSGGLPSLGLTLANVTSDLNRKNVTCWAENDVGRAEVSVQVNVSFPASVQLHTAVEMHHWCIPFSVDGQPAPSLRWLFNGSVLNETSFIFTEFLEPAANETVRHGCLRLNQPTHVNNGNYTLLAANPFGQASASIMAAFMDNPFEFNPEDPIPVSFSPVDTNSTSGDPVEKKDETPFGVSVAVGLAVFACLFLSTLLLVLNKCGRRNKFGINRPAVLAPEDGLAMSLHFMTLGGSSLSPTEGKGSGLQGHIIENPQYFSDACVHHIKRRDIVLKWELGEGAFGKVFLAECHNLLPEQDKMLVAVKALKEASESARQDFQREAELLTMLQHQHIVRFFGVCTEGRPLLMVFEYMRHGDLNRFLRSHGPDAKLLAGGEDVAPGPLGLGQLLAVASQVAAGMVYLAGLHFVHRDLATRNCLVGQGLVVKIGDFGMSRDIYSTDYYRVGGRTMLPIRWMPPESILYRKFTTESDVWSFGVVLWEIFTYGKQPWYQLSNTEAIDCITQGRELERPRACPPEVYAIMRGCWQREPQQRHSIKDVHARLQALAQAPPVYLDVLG

B1: humanized anti-TrkA monoclonal antibody H1L1-IgG4 (antibody)
heavy: EVQLLESGGGLVQPGGSLKLSCKASGYAFTNYWLGWMKQRPGHGLEWIGDFYPRTGNTFYNENFKGKVTLTADKSSNTAYMQLSSLTSEDSAVYLCARAGTGFDYWGQGTTLTVSSASTKGPSVFPLAPCSRSTSESTAALGCLVKDYFPEPVTVSWNSGALTSGVHTFPAVLQSSGLYSLSSVVTVPSSSLGTKTYTCNVDHKPSNTKVDKRVESKYGPPCPPCPAPEAAGGPSVFLFPPKPKDTLMISRTPEVTCVVVDVSQEDPEVQFNWYVDGVEVHNAKTKPREEQFNSTYRVVSVLTVLHQDWLNGKEYKCKVSNKGLPSSIEKTISKAKGQPREPQVYTLPPSQEEMTKNQVSLTCLVKGFYPSDIAVEWESNGQPENNYKTTPPVLDSDGSFFLYSKLTVDKSRWQEGNVFSCSVMHEALHNHYTQKSLSLSLG
light: EIVMTQSPATLSLSVGERVTLSCKASENVGGYVSWYQQKPDQSPKLLIYGASSRHTGVPDRFTGSGSETDFTLTISSVQAEDLAAYHCGQNYIYPFTFGGGTKLEIKRTVAAPSVFIFPPSDEQLKSGTASVVCLLNNFYPREAKVQWKVDNALQSGNSQESVTEQDSKDSTYSLSSTLTLSKADYEKHKVYACEVTHQGLSSPVTKSFNRGEC
B2: humanized anti-TrkA monoclonal antibody H3L1-IgG4 (antibody, V domains shown)
VH: EVQLLESGGGLVQPGGSLKLSCKASGYAFTNYWLGWMKQRPGHGLEWIGDFYPRTGNTFYNENFKGQVTMSVDKSITTAYLQWNSLKASDTAMYYCARAGTGFDYWGQGTTLTVSS
VL: EIVMTQSPATLSLSVGERVTLSCKASENVGGYVSWYQQKPDQSPKLLIYGASSRHTGVPDRFTGSGSETDFTLTISSVQAEDLAAYHCGQNYIYPFTFGGGTKLEIKR
B3: humanized anti-TrkA monoclonal antibody H3L2-IgG4 (antibody, V domains shown)
VH: B2 VH
VL: B2 VL with H55A
B4: human-mouse chimeric anti-TrkA monoclonal antibody 23E12 (H0L0-IgG4) (antibody)
heavy: B1 heavy with E1Q, L5Q, E6Q, G9A, G10E, Q13R, G16T, L18V, L20I
light: B1 light with E1S, A9K, T10S, L11M, L13M

biological target: Mouse-TrKA on the surface of HEK293T-MouseTrKA cells (mouse) (UniProt Q3UFB7); assay: flow cytometry on HEK293T-MouseTrkA cells

binding, binds:
B1, B2, B3, B4

biological target: Human-TrKA receptor on the surface of HEK293T-HumanTrKA cells (human) (UniProt P04629); assay: flow cytometry on HEK293T-HumanTrkA cells

binding, binds:
B2, B3, B4
